Data as given in US9043995B2, “Transgenic fish and uses thereof” (CITY UNIVERSITY OF HONG KONG, priority 2010, dated 2015).
For at least one compound, name, drawing or mass did not settle the structure. Some entries share one result that the patent states for a list of compounds.

Tests used:
[1] = test system: transgenic brackish medaka larvae (omChgH promoter-EGFP); test: Estrogen-like activity: induced liver GFP signal in omChgH promoter-EGFP transgenic brackish medaka fish exposed to test solution; format: in vivo, Oryzias melastigma; settings: for concentration above which GFP expression is induced in the liver: 24 hours exposure
Procedure: A generalized exposure regimen is established in the present art. FIG. 4 presents an example of using transgenic fish larvae to analyze the estrogen-like activity of a test solution. Exposure of transgenic brackish medaka fish (preferably yolk-sac larvae fish) to test solution (containing estrogen or estrogenic substances) is performed at 28° C. The exposure usually takes 24-48 hours. After exposure, the fish will be deposited on the inner side of a petri-dish cover with a small drop of test solution left. The induced EGFP expression in the fish liver will be observed under fluorescence microscope. Yolk-sac larvae are small, exposure can be carried out in utensils like 96-well plate, 24-well plate, petri-dish and so on to save test reagents. Additionally, newly hatched larvae are the most transparent stage, and the transparence can keep up to 15 days after hatch. After 15 days, the larvae will be gradually less transparent due to the development of muscle. The transgenic fish larvae of 1 to 15 days after hatch have similar estrogen sensitivity (FIG. 5).
(§1) In response to different concentrations of estrogen or estrogen-like chemical substances, transgenic fish expresses varying quantity of EGFP protein which is presented as varying GFP signal intensity under fluorescence microscope. […] To quantify the estrogen-like activity of test solution, fluorescent image of fish liver is recorded using a camera connected with the fluorescence microscope. Liver GFP signal intensity can then be measured using some image analysis software such as Metamorph (Universal Imaging). To reduce the interference of fish autofluorescence, only fish liver area was selected for the analysis. The average signal intensity of the manually marked area calculated using the same software was regarded as GFP signal intensity. Fish liver photos recorded using the same image parameter setting can be compared directly using GFP signal intensity, those photos recorded using varying image parameter settings can also be compared as long as each group contain a common reference control.
Estrone (E1), 17β-estradiol (E2) and estriol (E3) are natural steroid estrogens. […] Of them, E2 has been intensively studied, and is commonly used as a standard estrogen to evaluate the estrogen-like activity of testing reagents. Using transgenic larvae of present invention, induced GFP signal by E2 can usually be observed within 24 hours, and the GFP signal increases with the increasing concentration of E2. At higher E2 concentrations (e.g., 102 or 1020 nM), induced GFP signal intensity can even be observed within 4 hours after onset of exposure, and the signal increases with exposure time (FIG. 8), and reaches saturation within 24 hours. At low E2 concentrations, however, it will take longer for the induced GFP signal to accumulate to become detectable. Thus, by exposing transgenic brackish medaka fish larvae to different concentrations of E2 for a period of time (such as 24 hours), imaging the GFP expressing liver, and then measuring the induced liver GFP signal intensity using image analysis software, a standard curve correlating GFP signal intensity and E2 concentration can be established (GFP-E2 standard curve; FIG. 9). Using the same regimen, and also include one known E2 concentration exposure as reference, the estrogen-like activity of test reagents can then be evaluated as estrogen potency equivalent by referring the induced liver GFP signal to that of GFP-E2 standard curve.

[2] = test system: transgenic medaka fish larvae (omChgH promoter-EGFP); test: Binary exposure with E2: change of the liver GFP signal induced by 17β-estradiol in transgenic medaka larvae (agonism / anti-estrogen activity); format: in vivo, Oryzias melastigma
Procedure: Another method of the present invention relates to a method of screening for a compound having anti-estrogenic activity.
as §1
6-acetyl-1,1,2,4,4,7-hexamethyltetraline (AHTN) is one of the most widely used polycyclic musk. […] The estrogen antagonist activity of AHTN can also be very easily evaluated using transgenic medaka fish of present invention. […]

SMILES: Cc1ccc(C=C2C(=O)C3(C)CCC2C3(C)C)cc1 (stereo not drawn) [4-MBC, 3-(4′-methylbenzylidene-camphor)]
- concentration above which GFP expression is induced in the liver [1]: higher than 0.65 μM

SMILES: COc1ccc(C(=O)c2ccccc2)c(O)c1 [BP-3, Benzophenone-3]
- concentration above which GFP expression is induced in the liver [1]: higher than 0.65 μM

SMILES: C[C@]12CC[C@@H]3c4ccc(O)cc4CC[C@H]3[C@@H]1CCC2=O [E1, Estrone, reference compound]
- induction of liver GFP expression ([1]; transgenic brackish medaka larvae, at nM level): can induce liver GFP expression

SMILES: C#C[C@]1(O)CC[C@H]2[C@@H]3CCc4cc(O)ccc4[C@H]3CC[C@@]21C [EE2, 17α-ethinylestradiol, reference compound]
- induced liver GFP signal compared with E2 ([1]; same concentration (nM), same period (24 hours)): stronger than that induced by E2

SMILES: CCCCC(CC)COC(=O)C=Cc1ccc(OC)cc1 (stereo not drawn) [OMC, octyl-methoxycinnamate]
- effect on estrogenic activity / liver GFP signal induced by 17β-estradiol [2]: estrogen agonism
- induction of GFP expression in the liver, compound alone ([1]; transgenic O. melastigma fish/larvae): cannot induce the GFP expression
